# Library screen at single concentrations

The chains behind the UniProt entries cited, without tags or fusion partners. Residues count along the entry.
UniProt P9WPC5, whole entry: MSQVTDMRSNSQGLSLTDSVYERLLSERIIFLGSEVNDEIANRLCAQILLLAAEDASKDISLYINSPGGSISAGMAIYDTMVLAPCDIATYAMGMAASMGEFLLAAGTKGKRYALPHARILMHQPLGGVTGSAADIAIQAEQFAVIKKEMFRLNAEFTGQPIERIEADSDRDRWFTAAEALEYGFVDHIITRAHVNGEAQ
UniProt P9WPC3, whole entry partner: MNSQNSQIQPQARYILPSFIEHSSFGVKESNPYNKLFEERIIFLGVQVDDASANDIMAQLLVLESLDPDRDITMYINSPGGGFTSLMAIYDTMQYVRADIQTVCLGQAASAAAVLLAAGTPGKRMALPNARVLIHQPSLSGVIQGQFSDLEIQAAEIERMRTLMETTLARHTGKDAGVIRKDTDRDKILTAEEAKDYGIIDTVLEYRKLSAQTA
UniProt Q8IDJ8, 1-583: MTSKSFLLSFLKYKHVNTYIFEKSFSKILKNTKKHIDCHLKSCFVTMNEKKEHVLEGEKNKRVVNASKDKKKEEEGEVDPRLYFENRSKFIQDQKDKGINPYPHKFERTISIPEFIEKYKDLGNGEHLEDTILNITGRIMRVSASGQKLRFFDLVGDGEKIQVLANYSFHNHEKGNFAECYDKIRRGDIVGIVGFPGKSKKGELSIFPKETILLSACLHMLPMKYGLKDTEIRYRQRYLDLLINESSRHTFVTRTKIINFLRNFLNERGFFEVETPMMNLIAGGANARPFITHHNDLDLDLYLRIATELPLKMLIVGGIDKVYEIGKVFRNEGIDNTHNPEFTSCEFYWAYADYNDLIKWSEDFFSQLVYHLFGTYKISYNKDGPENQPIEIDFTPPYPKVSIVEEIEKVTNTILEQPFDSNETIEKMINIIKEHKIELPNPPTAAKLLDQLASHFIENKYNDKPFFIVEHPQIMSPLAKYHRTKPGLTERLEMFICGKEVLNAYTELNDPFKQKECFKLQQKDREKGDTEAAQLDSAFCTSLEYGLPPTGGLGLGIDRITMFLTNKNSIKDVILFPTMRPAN

A: 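Cell assay of Leishmania donovani living inside macrophages; the read-out is not stated. Compounds at 30 µM. Direction is inferred from retests: higher values go with stronger inhibition. About 69,000 compounds were tested under these conditions; 1.5% (about 1,000) showed 50% or more at least once.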
B: 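ClpP1P2, Mycobacterium tuberculosis (UniProt P9WPC5 and UniProt P9WPC3). Protease assay of ClpP1P2, read by the AMC dye that it sets free. Compounds at 50 µM. Higher reads as stronger inhibition, judged from the few compounds that gave an IC50. Most other retested compounds had strongly negative values. About 69,000 compounds were tested under these conditions; 0.015% (about 10) showed 50% or more at least once.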
C: 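Assay of Toxoplasma gondii numbers, read through their beta-galactosidase reporter with a colour substrate. Compounds at 10 µM. Higher reads as fewer parasites (inferred from which compounds were picked for retests). Of about 67,000 compounds tested this way, about 260 (0.38%) reached 50% or more in at least one test.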
D: 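Lysine-tRNA ligase, Plasmodium falciparum 3D7 (UniProt Q8IDJ8). Enzyme assay of the cytosolic lysyl-tRNA synthetase in 384-well plates, read by luminescence. Tested at 30 µM. Direction is inferred from only a few compounds that gave an IC50; most scored high, so higher reads as stronger inhibition. Of about 69,000 compounds tested this way, about 49 (0.071%) reached 50% or more in at least one test.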

Results are given as percent effect.
The record does not define 0% and 100%; most values in the screen are far below 50% and negative numbers occur (in some assays of this library far below -100).
This is an unselected part of the compounds tested.
Two or more numbers in one place are separate tests of the same structure; such repeats can differ widely.

- [H][C@]12CCN(C(=O)c3ccoc3)[C@@]1([H])CC[C@H](COCc1ccccn1)O2 : A: -30.2%; C: -1.588%
- COc1ccc(CCN2CCOC(Cn3nc(C)nc3C)C2)cc1 (stereo not given) : A: 24.62%; B: -12.76%; C: -1.329%; D: 4.54%
- OC1(CN2CCCC2)COCCN(c2ncnc3[nH]cnc23)C1 (stereo not given) : A: 4.051%; B: 3.764%; C: 1.978%; D: 3.575%
- Cn1ccnc1CN1CCCCC1c1nc(-c2ccccc2)no1 (stereo not given) : A: -0.6151%; B: 7.357%; C: 11.17%; D: 3.475%
- O=C(NC(c1ccc(Cl)cc1)C(F)(F)F)c1nc(=O)[nH][nH]1 (stereo not given) : A: -29.62%; B: -0.0832%; C: -2.265%; D: -4.628%
- CNc1cncc(C2CCCN2S(=O)(=O)c2ccccc2F)n1 (stereo not given) : A: -1.136% & -6.291%; B: -8.916%; C: -18.1%; D: 2.988%
- O=C(NC[C@@H]1CCCO1)c1cccnc1N1CCCC1c1ccccc1 (stereo not given in full) : A: -3.586%; B: -2.892%; C: 16.59%; D: 4.647%
- Cc1cc(C(=O)N(C)S(C)(=O)=O)ccc1F : A: -9.816%; B: -4.064%; C: -5.688%; D: -1.835%
- CCN(CC1CCOC1)C(=O)Nc1ccc(OCC(F)(F)F)nc1 (stereo not given) : A: 8.526%; B: -10.66%; C: 11.5%; D: 0.7965%
- CCS(=O)(=O)NC(CCSC)C(=O)Nc1ccc(C)cc1C (stereo not given) : A: -54.09%; B: 6.959%; C: 17%; D: -3.921%
- Cc1cccc(CN2CCC(n3cc(CCO)nn3)CC2)c1C : A: 33.46%; B: -3.419%; C: -4.309%; D: 0.7334%
- CC(C)n1ccc(-c2cc(C(=O)NC3CC3)c3ccccn23)n1 : A: 3.494%; B: -130.7%; C: -0.1618%; D: 0.7263%
- [H][C@@]12CN(CCOC)C[C@]1([H])[C@H](OC)CCN2C(=O)COc1ccccc1 : A: 14.01%; C: -3.797%
- COc1ccc(Cl)c(-c2noc3ncn(CCC(=O)O)c(=O)c23)c1 : A: 1.749% & 20.99%; B: -3.5%; C: 5.612%; D: 4.635%
- O=C(NC1CCN(c2ncccc2F)C1)c1cccc(-n2ccnn2)c1 (stereo not given) : A: 14.53%; B: 2.777%; C: 5.682%; D: 5.159%
- Cc1cc(C(=O)N2CCC3(CC2)c2nc[nH]c2CCN3CC(C)C)no1 : A: 20.65%; B: -3.085%; D: 5.634%
- CC(c1ccc(F)cc1F)N1CCN(CCC(=O)O)CC1 (stereo not given) : B: -3.768%; D: 9.424%
- COCCN1C[C@@H](C)[C@@]2(COCCN(C(=O)c3cccs3)C2)C1.O=C(O)C(F)(F)F : A: 7.824%; C: 7.389%
- N#Cc1cccc(NC2CC(=O)N(CCCc3ccccc3)C2)n1 (stereo not given) : A: -22.13%; B: -6.1%; C: 0.4005%; D: -0.1701%
- O=C(c1ccccc1)N1CCO[C@@H]2CN(c3ncccn3)C[C@@H]2C1 : B: -3.957%; D: -1.367%
- N[C@H]1CN(CCOc2ccc(F)cc2)C[C@@H]1C1CC1 : A: 44.73%; B: -1.287%; C: 0.2882%; D: 2.237%
- CCc1ccc(CN2CCN(C)c3ncccc3C2)o1.O=C(O)C(F)(F)F.O=C(O)C(F)(F)F : A: 17.95%; C: -7.873%
- CCOCCCNc1nc(CS(=O)(=O)c2ccccc2)cs1 : A: -89.5%; B: 2.784%; C: 1.018%; D: 0.274%
- COc1ccc(Cl)cc1-c1cc(NC(=O)C2CNC(=O)N2)[nH]n1 (stereo not given) : A: 6.008%; B: -10.99%; C: -2.572%; D: 5.023%

Once more, the final 3:

- CCc1ccc(CN2CCN(C)c3ncccc3C2)o1.O=C(O)C(F)(F)F.O=C(O)C(F)(F)F : A: 17.95%; C: -7.873%
- CCOCCCNc1nc(CS(=O)(=O)c2ccccc2)cs1 : A: -89.5%; B: 2.784%; C: 1.018%; D: 0.274%
- COc1ccc(Cl)cc1-c1cc(NC(=O)C2CNC(=O)N2)[nH]n1 (stereo not given) : A: 6.008%; B: -10.99%; C: -2.572%; D: 5.023%

Source: ChEMBL document CHEMBL3988442, “University of Dundee, Small-Polar-MMV Screening Library” (2021).